Assay: Food intake of db/db mice during treatment
Assay type: in vivo, mouse

SMILES | Mean food intake (0.5 mg/kg/day, week 1) | Mean food intake (0.5 mg/kg/day, week 2) | Mean food intake (0.5 mg/kg/day, week 4) | Mean food intake (0.5 mg/kg/day, week 6) | Mean food intake (2.5 mg/kg/day, week 1) | Mean food intake (2.5 mg/kg/day, week 2) | Mean food intake (2.5 mg/kg/day, week 4) | Mean food intake (2.5 mg/kg/day, week 6)
CC#CC#CC#CC#CCCC(CO)O[C@@H]1O[C@H](CO)[C@@H](O)[C@H](O)[C@H]1O (stereo partly drawn) [cytopiloyne, 2-β-D-glucopyranosyloxy-1-hydroxytrideca-5,7,9,11-tetrayne] | 5.9 g/mouse/day | 6.5 g/mouse/day | 6.6 g/mouse/day | 7.0 g/mouse/day | 4.7 g/mouse/day | 4.7 g/mouse/day | 6.0 g/mouse/day | 6.1 g/mouse/day
CCC1=C(C)CN(C(=O)NCCc2ccc(S(=O)(=O)NC(=O)N[C@H]3CC[C@H](C)CC3)cc2)C1=O [glimepiride, reference compound] | – | – | – | – | 4.3 g/mouse/day | 5.3 g/mouse/day | 6.5 g/mouse/day | 6.7 g/mouse/day

Reference: patent US8575116B1, “Polyacetylenic compounds for protecting against pancreatic islet atrophy” (Academia Sinica, priority 2010, dated 2013)
